The record followed here is patent publication US7005413 (Amgen, dated 2006).

No constants are given. Whether binding was seen depends on the method and setting. Some entries that bind do so weakly or less than the wild type.

One experiment deals with muOPG [22-293] (mouse) (UniProt O08712). Description: homodimerization; non-reducing SDS-PAGE and western blot. For orientation: A western blot detects proteins with antibodies after separation by electrophoresis.
Another experiment addresses muOPG [22-355] (mouse) (UniProt O08712). Described as above.
The target of experiment [1] is muOPG [22-401] (mouse) (UniProt O08712). In words: self-association of purified monomer on storage; SDS-PAGE.
Experiment [2] shares this target. Description: self-association; reducing vs non-reducing SDS-PAGE and western blot of CHO conditioned media.
Experiment [3] has the same target. In words: self-association; nonreducing SDS gels.
For experiment [4] the target is unchanged. Description: self-association; 35S pulse-chase, immunoprecipitation, non-reducing SDS-PAGE.
Experiment [5] deals with OPG expressed as a naturally occurring product from the CTLL-2 murine cytotoxic T lymphocytic cell line (mouse) (UniProt O08712). In words: self-association; non-reducing SDS-PAGE and western blot of CTLL-2 conditioned media.
The target is the same in experiment [6]. Description: self-association; nonreducing SDS gels.

B1: muOPG [22-293] (receptor)
chain: ETLLPKYLHYDPETGHQLLCDKCAPGTYLKQHCTVRRKTLCVPCPDHSYTDSWHTSDECVYCSPVCKELQSVKQECNRTHNRVCECEEGRYLEIEFCLKHRSCPPGSGVVQAGTPERNTVCKKCPDGFFSGETSSKAPCIKHTNCSTFGLLLIQKGNATHDNCCSGNREATQKCGIDVTLCEEAFFRFAVPTKIIPNWLSVLVDSLPGTKVNAESVERIKRRHSSQEQTFQLLKLWKHQNRDQEMVKKIIQDIDLCESSVQRHLGHSNLTTE
Take B1: the binding result with muOPG [22-293] (mouse) was “binds”.

B2: muOPG [22-355] (receptor)
chain: ETLLPKYLHYDPETGHQLLCDKCAPGTYLKQHCTVRRKTLCVPCPDHSYTDSWHTSDECVYCSPVCKELQSVKQECNRTHNRVCECEEGRYLEIEFCLKHRSCPPGSGVVQAGTPERNTVCKKCPDGFFSGETSSKAPCIKHTNCSTFGLLLIQKGNATHDNCCSGNREATQKCGIDVTLCEEAFFRFAVPTKIIPNWLSVLVDSLPGTKVNAESVERIKRRHSSQEQTFQLLKLWKHQNRDQEMVKKIIQDIDLCESSVQRHLGHSNLTTEQLLALMESLPGKKISPEEIERTRKTCKSSEQLLKLLSLWRIKNGDQDTLKGLMYALKHLKTS
As for B2, in the experiment with muOPG [22-355] (mouse), the binding result is given as “binds”.

B3: muOPG [22-401] (receptor)
chain: ETLLPKYLHYDPETGHQLLCDKCAPGTYLKQHCTVRRKTLCVPCPDHSYTDSWHTSDECVYCSPVCKELQSVKQECNRTHNRVCECEEGRYLEIEFCLKHRSCPPGSGVVQAGTPERNTVCKKCPDGFFSGETSSKAPCIKHTNCSTFGLLLIQKGNATHDNCCSGNREATQKCGIDVTLCEEAFFRFAVPTKIIPNWLSVLVDSLPGTKVNAESVERIKRRHSSQEQTFQLLKLWKHQNRDQEMVKKIIQDIDLCESSVQRHLGHSNLTTEQLLALMESLPGKKISPEEIERTRKTCKSSEQLLKLLSLWRIKNGDQDTLKGLMYALKHLKTSHFPKTVTHSLRKTMRFLHSFTMYRLYQKLFLEMIGNQVQSVKISCL
B3: the binding entry in the experiment with muOPG [22-401] (mouse) [1], with muOPG [22-401] (mouse) [2], with muOPG [22-401] (mouse) [3] and in the experiment with muOPG [22-401] (mouse) [4] was “binds” throughout.

B4: OPG expressed as a naturally occurring product from the CTLL-2 murine cytotoxic T lymphocytic cell line (receptor)
chain: B3 chain
For B4, the binding entry in experiment [5] and in experiment [6] was “binds” throughout.
